This passage reports binding signal results from PMC7862700.

Sequences of proteins named here, by UniProt entry; tags and fusion partners are left off. A change or cut given only in a name is not applied to a line headed by its entry.
UniProt O43186: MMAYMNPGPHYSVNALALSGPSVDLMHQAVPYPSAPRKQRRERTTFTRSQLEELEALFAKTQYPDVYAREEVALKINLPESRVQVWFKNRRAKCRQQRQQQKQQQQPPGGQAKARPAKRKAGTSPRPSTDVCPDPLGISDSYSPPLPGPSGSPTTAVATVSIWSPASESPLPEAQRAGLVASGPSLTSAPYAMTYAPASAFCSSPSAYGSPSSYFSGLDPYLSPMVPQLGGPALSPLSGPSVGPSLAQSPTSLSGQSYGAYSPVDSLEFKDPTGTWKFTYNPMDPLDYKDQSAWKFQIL

This is a selection; strong and weak results do not stand in their true shares. At the low end of the ranking the order means little.

The target in the experiment is CRX (UniProt O43186). Put plainly: DAPPL (digital affinity profiling via proximity ligation, sequencing). The conditions noted are these: 10 mM Tris-HCl pH 7.5, 50 mM NaCl, 1 mM DTT, 4% glycerol, room temperature, 30 min; GST-TFs on glutathione beads, 16-mer random dsDNA library, 0.1% …; high values mean tight binding; double strand, one strand shown; scale: fold enrichment (6-mer frequency, TF over GST control).
With CGATGG, the binding signal stood at 1.14.

CCAAAT gave a binding signal of 1.18.

ACGACA returned a binding signal of 0.864.

CCCTTA came in with a binding signal of 1.59.

Turning to ATAAGA, the binding signal is 1.97.

ACGACC yielded a binding signal of 0.86.

For the sequence GACCGG, the binding signal stood at 0.477.

AGTCCC: the binding signal stood at 0.899.

For CAACAC, the binding signal worked out at 0.817.

Sequence TGGACA showed a binding signal of 0.836.

For the sequence GCTACA, the binding signal worked out at 0.952.

For the sequence TTCGCC, the binding signal was 1.

Consider TTCCAT, for which the binding signal came out at 1.43.

The sequence GGAAGA gave a binding signal of 0.607.

Sequence AATATG registered a binding signal of 1.1.

With ATGGTC, the binding signal amounted to 0.977.

AGCATC displayed a binding signal of 0.886.

ACCTCA yielded a binding signal of 0.952.

In turn, CATGAT registered a binding signal of 1.17.

With CAATCT, the binding signal was found to be 1.42.

As to TGGCAC, the binding signal is 0.915.

In turn, GCCCGC displayed a binding signal of 0.849.

In turn, CGCACA returned a binding signal of 0.746.

TGACGC displayed a binding signal of 0.995.

Sequence GTTACA came in with a binding signal of 0.912.

In turn, TATCCC yielded a binding signal of 2.22.

The sequence TTTCGT yielded a binding signal of 1.43.

AACCCG had a binding signal of 1.2.

The sequence TTATAT showed a binding signal of 2.47.

For the sequence GTCCAT, the binding signal is 0.85.

Sequence TCTGAC registered a binding signal of 0.997.

Turning to TGCGCC, the binding signal was found to be 0.884.

As to ATGCTA, the binding signal amounted to 1.45.

Sequence CCGTCT registered a binding signal of 1.26.

As to AAAGTT, the binding signal was 1.22.

With ATATAT, the binding signal stood at 1.46.

TGATGT gave a binding signal of 1.05.

GTCCCA showed a binding signal of 0.912.

Regarding CATCGC, the binding signal turned out to be 0.834.
